# Counter-ions that a name gives are not always drawn. Some of the results follow. Hit calls seldom repeat between salt and free forms of one compound.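 Kinases were expressed as nanoluciferase fusions in K562 cells and luminescence was read every 4 h between 2 and 18 h as percent of control, DMSO set to 100% and a positive control to 0%. A time point counts as decreased when the signal drops significantly (2 sigma). The hit call is the authors' own, does not follow from the count of time points alone, and its rule is not shown.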
# Protein sequences, listed by entry. Tags and fused reporters are not part of them. Lines headed by an entry give the natural chain unless they say otherwise; changes in a name come on top.
# UniProt Q15208: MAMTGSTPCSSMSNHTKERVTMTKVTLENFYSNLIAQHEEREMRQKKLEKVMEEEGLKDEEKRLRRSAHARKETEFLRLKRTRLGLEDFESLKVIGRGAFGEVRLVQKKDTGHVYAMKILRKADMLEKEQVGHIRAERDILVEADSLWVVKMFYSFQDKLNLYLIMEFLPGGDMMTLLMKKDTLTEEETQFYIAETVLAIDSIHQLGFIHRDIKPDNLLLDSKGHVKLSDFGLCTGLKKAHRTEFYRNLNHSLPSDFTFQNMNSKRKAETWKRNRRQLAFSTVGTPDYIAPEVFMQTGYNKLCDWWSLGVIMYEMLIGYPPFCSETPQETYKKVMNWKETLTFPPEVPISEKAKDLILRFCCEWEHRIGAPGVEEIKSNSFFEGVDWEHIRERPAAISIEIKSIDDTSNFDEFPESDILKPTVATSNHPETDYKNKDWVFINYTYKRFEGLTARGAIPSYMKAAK
# UniProt P42680: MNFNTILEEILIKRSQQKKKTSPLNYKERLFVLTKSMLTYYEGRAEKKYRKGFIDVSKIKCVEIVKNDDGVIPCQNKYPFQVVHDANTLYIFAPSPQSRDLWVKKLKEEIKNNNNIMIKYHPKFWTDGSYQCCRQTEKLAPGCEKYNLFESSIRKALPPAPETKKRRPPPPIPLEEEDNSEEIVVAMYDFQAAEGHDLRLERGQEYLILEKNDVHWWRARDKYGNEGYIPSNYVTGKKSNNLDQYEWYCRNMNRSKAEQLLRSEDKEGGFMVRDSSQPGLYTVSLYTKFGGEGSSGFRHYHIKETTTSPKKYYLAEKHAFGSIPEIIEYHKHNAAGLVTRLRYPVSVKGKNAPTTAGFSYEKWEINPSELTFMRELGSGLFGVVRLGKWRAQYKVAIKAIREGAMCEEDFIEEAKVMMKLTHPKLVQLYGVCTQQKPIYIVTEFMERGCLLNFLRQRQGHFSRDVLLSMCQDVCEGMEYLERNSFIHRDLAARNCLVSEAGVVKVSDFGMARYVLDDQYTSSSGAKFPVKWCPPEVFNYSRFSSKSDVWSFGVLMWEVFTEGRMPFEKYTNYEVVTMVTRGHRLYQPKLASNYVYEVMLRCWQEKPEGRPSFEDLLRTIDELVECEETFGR
# UniProt P29597: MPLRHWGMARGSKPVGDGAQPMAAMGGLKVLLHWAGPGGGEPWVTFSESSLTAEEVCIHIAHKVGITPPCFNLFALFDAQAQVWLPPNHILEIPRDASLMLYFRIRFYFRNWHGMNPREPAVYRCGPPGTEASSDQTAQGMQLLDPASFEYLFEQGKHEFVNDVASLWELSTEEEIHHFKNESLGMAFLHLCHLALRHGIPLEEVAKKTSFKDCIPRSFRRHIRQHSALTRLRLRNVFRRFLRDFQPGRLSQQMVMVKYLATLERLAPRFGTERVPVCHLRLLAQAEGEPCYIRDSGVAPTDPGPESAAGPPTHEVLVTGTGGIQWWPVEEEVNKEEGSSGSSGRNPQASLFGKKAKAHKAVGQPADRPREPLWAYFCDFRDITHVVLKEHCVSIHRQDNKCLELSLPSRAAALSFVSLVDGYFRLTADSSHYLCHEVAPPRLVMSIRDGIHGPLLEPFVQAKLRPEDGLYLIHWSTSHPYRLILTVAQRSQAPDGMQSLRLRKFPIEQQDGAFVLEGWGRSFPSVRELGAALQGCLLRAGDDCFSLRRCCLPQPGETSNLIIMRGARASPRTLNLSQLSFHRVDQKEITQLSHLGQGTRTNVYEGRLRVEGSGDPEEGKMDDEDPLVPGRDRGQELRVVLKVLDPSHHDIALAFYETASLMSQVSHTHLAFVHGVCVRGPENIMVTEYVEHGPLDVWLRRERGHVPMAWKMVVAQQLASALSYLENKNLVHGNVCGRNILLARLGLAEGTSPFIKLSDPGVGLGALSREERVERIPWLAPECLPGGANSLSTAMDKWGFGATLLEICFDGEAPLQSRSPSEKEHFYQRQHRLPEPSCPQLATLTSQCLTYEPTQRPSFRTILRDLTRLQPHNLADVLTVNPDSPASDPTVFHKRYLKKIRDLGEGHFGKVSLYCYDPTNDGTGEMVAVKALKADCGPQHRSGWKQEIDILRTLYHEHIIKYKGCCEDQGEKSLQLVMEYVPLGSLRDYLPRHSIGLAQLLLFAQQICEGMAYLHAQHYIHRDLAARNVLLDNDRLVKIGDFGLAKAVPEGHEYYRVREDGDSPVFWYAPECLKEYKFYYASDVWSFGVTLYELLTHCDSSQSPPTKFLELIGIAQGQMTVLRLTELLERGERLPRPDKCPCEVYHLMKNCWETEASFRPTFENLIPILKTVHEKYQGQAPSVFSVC
# UniProt P00519, whole entry: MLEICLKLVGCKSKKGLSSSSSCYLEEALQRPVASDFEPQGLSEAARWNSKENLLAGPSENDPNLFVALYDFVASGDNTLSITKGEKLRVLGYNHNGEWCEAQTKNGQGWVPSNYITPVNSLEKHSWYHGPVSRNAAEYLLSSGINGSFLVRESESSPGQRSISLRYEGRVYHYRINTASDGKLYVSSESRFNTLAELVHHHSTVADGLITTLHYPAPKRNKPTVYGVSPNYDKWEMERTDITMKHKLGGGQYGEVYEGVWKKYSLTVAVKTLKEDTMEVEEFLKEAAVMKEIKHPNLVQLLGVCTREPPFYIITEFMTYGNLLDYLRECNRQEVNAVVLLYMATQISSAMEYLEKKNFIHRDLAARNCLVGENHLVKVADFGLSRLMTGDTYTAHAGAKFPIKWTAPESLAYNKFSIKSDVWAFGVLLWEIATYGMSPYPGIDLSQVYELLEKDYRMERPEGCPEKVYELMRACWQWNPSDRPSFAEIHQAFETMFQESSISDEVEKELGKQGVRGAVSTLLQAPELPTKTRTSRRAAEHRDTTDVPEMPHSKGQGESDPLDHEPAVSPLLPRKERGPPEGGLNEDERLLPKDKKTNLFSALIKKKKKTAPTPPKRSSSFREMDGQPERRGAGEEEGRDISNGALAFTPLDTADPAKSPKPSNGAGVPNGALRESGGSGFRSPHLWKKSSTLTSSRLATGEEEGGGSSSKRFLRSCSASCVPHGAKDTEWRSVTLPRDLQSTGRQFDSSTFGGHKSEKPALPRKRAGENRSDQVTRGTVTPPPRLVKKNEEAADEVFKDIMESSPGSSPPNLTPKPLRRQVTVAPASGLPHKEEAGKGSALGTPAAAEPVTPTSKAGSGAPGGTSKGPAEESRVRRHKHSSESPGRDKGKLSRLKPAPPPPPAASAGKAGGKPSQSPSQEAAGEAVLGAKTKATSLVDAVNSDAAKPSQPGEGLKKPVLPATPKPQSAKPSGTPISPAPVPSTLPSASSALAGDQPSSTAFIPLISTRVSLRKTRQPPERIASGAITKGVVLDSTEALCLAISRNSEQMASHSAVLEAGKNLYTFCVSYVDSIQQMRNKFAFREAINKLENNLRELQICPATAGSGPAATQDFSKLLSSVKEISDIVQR
# UniProt P31749: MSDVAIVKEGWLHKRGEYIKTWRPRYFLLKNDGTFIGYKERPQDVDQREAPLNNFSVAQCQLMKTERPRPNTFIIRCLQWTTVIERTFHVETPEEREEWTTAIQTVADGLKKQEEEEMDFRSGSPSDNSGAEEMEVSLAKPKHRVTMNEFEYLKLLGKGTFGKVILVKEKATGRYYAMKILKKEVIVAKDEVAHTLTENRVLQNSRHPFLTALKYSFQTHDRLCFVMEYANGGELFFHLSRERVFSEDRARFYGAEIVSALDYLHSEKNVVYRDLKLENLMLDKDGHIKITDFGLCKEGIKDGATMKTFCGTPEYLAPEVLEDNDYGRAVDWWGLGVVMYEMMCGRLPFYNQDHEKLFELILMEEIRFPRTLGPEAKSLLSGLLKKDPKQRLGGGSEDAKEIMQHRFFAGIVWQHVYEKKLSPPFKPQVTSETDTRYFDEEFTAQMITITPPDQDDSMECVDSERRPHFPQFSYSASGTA
# UniProt P10398: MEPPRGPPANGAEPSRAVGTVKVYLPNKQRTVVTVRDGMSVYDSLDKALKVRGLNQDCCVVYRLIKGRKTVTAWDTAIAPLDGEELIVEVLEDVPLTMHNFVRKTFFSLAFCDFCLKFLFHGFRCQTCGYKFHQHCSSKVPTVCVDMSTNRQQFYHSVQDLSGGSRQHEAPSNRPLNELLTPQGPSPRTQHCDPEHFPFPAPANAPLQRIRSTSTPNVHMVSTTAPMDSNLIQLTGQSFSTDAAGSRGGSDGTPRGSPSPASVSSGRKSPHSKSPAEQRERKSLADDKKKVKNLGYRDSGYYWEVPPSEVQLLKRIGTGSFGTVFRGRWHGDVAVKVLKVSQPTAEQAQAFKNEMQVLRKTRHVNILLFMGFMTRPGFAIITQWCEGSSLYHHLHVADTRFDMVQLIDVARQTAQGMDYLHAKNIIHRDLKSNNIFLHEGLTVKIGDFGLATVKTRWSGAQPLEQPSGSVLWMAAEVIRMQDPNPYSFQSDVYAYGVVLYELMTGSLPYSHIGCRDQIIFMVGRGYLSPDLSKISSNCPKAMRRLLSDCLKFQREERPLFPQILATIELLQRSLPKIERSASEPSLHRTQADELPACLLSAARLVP
# UniProt O14965: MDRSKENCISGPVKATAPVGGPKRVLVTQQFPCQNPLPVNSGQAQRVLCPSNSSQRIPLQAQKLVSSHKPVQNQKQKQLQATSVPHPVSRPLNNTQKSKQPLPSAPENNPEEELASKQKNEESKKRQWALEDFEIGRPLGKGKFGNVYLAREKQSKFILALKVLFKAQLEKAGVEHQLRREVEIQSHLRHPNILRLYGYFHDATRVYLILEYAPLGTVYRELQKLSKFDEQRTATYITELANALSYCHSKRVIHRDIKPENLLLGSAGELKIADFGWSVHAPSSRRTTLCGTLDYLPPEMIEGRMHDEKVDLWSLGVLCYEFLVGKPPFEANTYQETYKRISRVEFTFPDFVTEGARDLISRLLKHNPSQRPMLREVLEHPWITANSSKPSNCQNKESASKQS
# UniProt Q9UQB9: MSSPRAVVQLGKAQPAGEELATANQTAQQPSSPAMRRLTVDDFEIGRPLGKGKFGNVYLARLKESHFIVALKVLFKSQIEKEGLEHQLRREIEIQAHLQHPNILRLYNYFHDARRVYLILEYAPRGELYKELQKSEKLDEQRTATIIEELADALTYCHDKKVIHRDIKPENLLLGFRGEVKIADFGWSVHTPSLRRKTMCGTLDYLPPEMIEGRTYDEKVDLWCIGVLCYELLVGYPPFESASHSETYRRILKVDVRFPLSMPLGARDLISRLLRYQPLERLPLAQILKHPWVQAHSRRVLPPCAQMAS
# UniProt P51813: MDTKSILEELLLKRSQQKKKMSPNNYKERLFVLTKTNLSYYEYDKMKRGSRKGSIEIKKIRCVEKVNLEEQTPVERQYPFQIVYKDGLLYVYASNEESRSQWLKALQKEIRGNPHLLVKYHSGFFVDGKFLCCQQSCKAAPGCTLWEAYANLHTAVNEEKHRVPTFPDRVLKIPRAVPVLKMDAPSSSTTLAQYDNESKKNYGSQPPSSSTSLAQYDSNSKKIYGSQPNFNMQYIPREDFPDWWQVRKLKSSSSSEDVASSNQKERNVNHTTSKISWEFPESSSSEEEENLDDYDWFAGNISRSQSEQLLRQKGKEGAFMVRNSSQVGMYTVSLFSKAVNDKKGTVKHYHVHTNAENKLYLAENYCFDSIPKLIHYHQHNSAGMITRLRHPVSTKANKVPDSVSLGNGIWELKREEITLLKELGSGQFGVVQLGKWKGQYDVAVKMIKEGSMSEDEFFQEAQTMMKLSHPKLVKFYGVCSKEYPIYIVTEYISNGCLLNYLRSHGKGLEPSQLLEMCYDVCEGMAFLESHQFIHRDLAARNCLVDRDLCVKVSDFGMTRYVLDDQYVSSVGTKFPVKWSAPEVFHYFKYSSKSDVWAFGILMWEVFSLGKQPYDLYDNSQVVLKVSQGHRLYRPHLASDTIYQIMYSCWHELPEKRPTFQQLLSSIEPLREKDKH
# UniProt Q06187: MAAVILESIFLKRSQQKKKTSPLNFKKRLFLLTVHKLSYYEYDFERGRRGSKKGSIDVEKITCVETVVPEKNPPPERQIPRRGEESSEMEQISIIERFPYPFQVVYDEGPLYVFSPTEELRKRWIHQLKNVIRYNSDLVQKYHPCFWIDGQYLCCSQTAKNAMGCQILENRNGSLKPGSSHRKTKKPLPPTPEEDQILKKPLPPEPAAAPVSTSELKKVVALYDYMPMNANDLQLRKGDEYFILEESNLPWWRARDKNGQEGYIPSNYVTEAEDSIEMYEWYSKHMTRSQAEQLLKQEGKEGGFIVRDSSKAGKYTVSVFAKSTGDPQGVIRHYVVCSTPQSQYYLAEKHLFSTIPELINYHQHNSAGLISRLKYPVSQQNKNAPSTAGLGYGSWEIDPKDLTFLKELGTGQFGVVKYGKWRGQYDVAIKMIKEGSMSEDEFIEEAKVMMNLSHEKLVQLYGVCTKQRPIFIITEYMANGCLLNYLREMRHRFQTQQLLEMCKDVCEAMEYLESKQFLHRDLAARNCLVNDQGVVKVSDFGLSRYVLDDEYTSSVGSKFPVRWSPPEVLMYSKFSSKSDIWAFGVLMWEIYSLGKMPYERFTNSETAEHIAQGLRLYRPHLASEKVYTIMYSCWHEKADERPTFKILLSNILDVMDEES
# Key:
# Details in all cases: K562; 2-18 h
# STK38 = STK38 (UniProt Q15208); test: kinase-Nluc reporter destabilization hit call (1 = scored as downregulated) (binary); higher = compound decreases kinase abundance
# SYK = SYK (UniProt P43405); test: as above
# TEC = TEC (UniProt P42680); test: as above
# TYK2 = TYK2 (UniProt P29597); test: as above
# ULK3 = ULK3 (UniProt Q6PHR2); test: as above
# YES1 = YES1 (UniProt P07947); test: as above
# ZAK = ZAK (UniProt Q9NYL2); test: as above
# ZAP70 = ZAP70 (UniProt P43403); test: as above
# ABL1 = ABL1 (UniProt P00519); test: number of time points (of 5) at which kinase-Nluc abundance scored as decreased, DMSO-normalised (count); higher = more persistent destabilization
# AKT1 = AKT1 (UniProt P31749); test: as above
# ALK = ALK (UniProt Q9UM73); test: as above
# ARAF = ARAF (UniProt P10398); test: as above
# AURKA = AURKA (UniProt O14965); test: as above
# AURKB = AURKB (UniProt Q96GD4); test: as above
# AURKC = AURKC (UniProt Q9UQB9); test: as above
# BLK = BLK (UniProt P51451); test: as above
# BMX = BMX (UniProt P51813); test: as above
# BRAF = BRAF (UniProt P15056); test: as above
# BRAF_V600E = test: as above
# BTK = BTK (UniProt Q06187); test: as above
Structure (SMILES),kinase-Nluc reporter destabilization hit call (STK38),kinase-Nluc reporter destabilization hit call (SYK),kinase-Nluc reporter destabilization hit call (TEC),kinase-Nluc reporter destabilization hit call (TYK2),kinase-Nluc reporter destabilization hit call (ULK3),kinase-Nluc reporter destabilization hit call (YES1),kinase-Nluc reporter destabilization hit call (ZAK),kinase-Nluc reporter destabilization hit call (ZAP70),number of time points (ABL1),number of time points (AKT1),number of time points (ALK),number of time points (ARAF),number of time points (AURKA),number of time points (AURKB),number of time points (AURKC),number of time points (BLK),number of time points (BMX),number of time points (BRAF),number of time points (BRAF_V600E),number of time points (BTK)
CCCNC(=O)c1cn2ncnc(Nc3cc(C(=O)NC4CC4)ccc3C)c2c1C (10 µM),inactive: 0,inactive: 0,inactive: 0,inactive: 0,inactive: 0,inactive: 0,inactive: 0,inactive: 0,0,0,0,0,0,0,0,0,0,0,0,0
COc1cc(N2CCC(O)CC2)ccc1Nc1cc(Nc2ccccc2S(=O)(=O)C(C)C)c2cc[nH]c2n1 (10 µM),inactive: 0,inactive: 0,inactive: 0,inactive: 0,inactive: 0,inactive: 0,inactive: 0,inactive: 0,0,0,0,0,0,0,0,0,0,0,0,0
O=c1nc(N2CCOCC2)oc2c(-c3cccc4c3sc3ccccc34)cccc12 (10 µM),inactive: 0,inactive: 0,inactive: 0,inactive: 0,inactive: 0,inactive: 0,inactive: 0,inactive: 0,0,0,0,0,0,0,0,0,0,0,0,0
CC(C)Oc1ccc(-c2cnc3c(-c4ccnc5ccccc45)cnn3c2)cc1 (10 µM),inactive: 0,inactive: 0,inactive: 0,inactive: 0,inactive: 0,inactive: 0,inactive: 0,inactive: 0,0,0,0,0,0,0,0,0,0,0,0,0
N#Cc1ccc(-c2c(-c3ncn[nH]3)sc(N3CCOCC3)c2C#N)c(F)c1 (10 µM),inactive: 0,inactive: 0,inactive: 0,inactive: 0,inactive: 0,inactive: 0,inactive: 0,inactive: 0,0,0,0,0,3,0,0,0,0,0,2,0
O=c1cc(-c2ccc(O)c(O)c2O)oc2ccccc12 (10 µM),inactive: 0,inactive: 0,inactive: 0,inactive: 0,inactive: 0,inactive: 0,inactive: 0,inactive: 0,0,0,0,0,0,0,0,0,0,0,0,0
CCCC(=O)Nc1nc2c(ncn2[C@@H]2O[C@@H]3COP(=O)(O)O[C@H]3[C@H]2OC(=O)CCC)c(=O)[nH]1 [Dibutyryl-cGMP (sodium)] (10 µM),inactive: 0,inactive: 0,inactive: 0,inactive: 0,inactive: 0,inactive: 0,inactive: 0,inactive: 0,0,0,0,0,0,0,0,0,0,0,0,0
COc1cc(C(=O)N2CCC(N3CCN(C)CC3)CC2)ccc1Nc1ncc2c(n1)N(C)c1ccccc1C(=O)N2C (10 µM),inactive: 0,inactive: 0,inactive: 0,inactive: 0,inactive: 0,inactive: 0,inactive: 0,inactive: 0,0,0,0,0,0,0,0,0,0,0,0,0
O=C1NC(=O)/C(=C/c2ccc(-c3ccc(F)cc3O)o2)S1 (10 µM),inactive: 0,inactive: 0,inactive: 0,inactive: 0,inactive: 0,inactive: 0,inactive: 0,inactive: 0,0,0,0,0,0,0,0,0,0,0,0,0
CC(C)c1cnn2c(NCc3ccccc3-n3cccn3)nc(OC3CCCNC3)nc12 (stereo not given) (2.5 µM),inactive: 0,inactive: 0,inactive: 0,inactive: 0,inactive: 0,inactive: 0,inactive: 0,inactive: 0,0,0,0,0,1,0,0,2,0,0,4,0
O=Nc1c(-c2c(O)[nH]c3ccccc23)[nH]c2ccccc12 [Indirubin-3'-monoxime] (2.5 µM),inactive: 0,inactive: 0,inactive: 0,inactive: 0,inactive: 0,inactive: 0,inactive: 0,inactive: 0,0,0,0,0,0,0,0,0,0,0,0,0
CC1=C(C(=O)Nc2ccc3[nH]ncc3c2)C(c2ccc(F)cc2)NC(=O)N1 (stereo not given) (10 µM),inactive: 0,inactive: 0,inactive: 0,inactive: 0,inactive: 0,inactive: 0,inactive: 0,inactive: 0,0,0,0,0,0,0,0,0,0,0,0,0
CCOc1c([C@H](C)n2nc(C)c3c(N)ncnc32)cc(Cl)c(F)c1[C@@H]1CNC(=O)C1 [Parsaclisib (hydrochloride)] (10 µM),inactive: 0,inactive: 0,inactive: 0,inactive: 0,inactive: 0,inactive: 0,inactive: 0,inactive: 0,0,0,0,0,0,0,0,0,0,0,0,0
COc1ccc(-n2c(C)c([N+](=O)[O-])c3ccc(O)cc32)cc1 (10 µM),inactive: 0,inactive: 0,inactive: 0,inactive: 0,inactive: 0,inactive: 0,inactive: 0,inactive: 0,0,0,0,0,0,0,0,0,0,0,0,0
CCN1C(=O)CNc2ncc(-c3ccc(-c4nc[nH]n4)nc3C)nc21 [CC-115 (hydrochloride)] (2.5 µM),inactive: 0,inactive: 0,inactive: 0,inactive: 0,inactive: 0,inactive: 0,inactive: 0,inactive: 0,5,0,1,0,3,1,0,1,3,2,4,1
Cn1cc(-c2ccc(F)c(C(F)(F)F)c2)nc1C1CCN(c2ncnc3[nH]ncc23)CC1 (10 µM),inactive: 0,inactive: 0,inactive: 0,inactive: 0,inactive: 0,inactive: 0,inactive: 0,inactive: 0,0,0,0,0,0,0,0,0,0,0,0,0
O=C(O)c1ccc(-c2c[nH]c3ncc(-c4ccccc4)cc23)cc1C1CCCC1 (2.5 µM),inactive: 0,inactive: 0,inactive: 0,inactive: 0,inactive: 0,inactive: 0,inactive: 0,inactive: 0,0,0,0,0,0,0,0,0,0,0,0,0

# Look-ups from the results shown:
# number of time points (AKT1) with O=c1nc(N2CCOCC2)oc2c(-c3cccc4c3sc3ccccc34)cccc12 (10 µM) is entered as 0
# number of time points (AURKA) with O=C(O)c1ccc(-c2c[nH]c3ncc(-c4ccccc4)cc23)cc1C1CCCC1 (2.5 µM) is entered as 0

# Reference: the supplement of paper PMC12823440, “Inhibitors supercharge kinase turnover through native proteolytic circuits” (Nature, 2025)
